Laboratory results as given in patent US8895695B2 (priority 2003, dated 2014).

Test: general procedure: Fmoc solid-phase peptide synthesis; Fmoc-ProO-chlorotritylresin, Fmoc-DProO-chlorotritylresin, Fmoc-S-(4-S-Alloc-amino)-ProO-chlorotritylresin
Details: whole synthesis, scale of the general procedure 60 mg resin per vessel

Row | Substance | final purity (method not given)
1 | Tyr-Arg-Cit-Cys-Arg-Gly-^DPro-Tyr-Arg-2-Nal-Cys-Tyr-Gln-Lys-^DPro^LPro | 95%
2 | Tyr-Arg-Cit-Cys-Arg-Val-Gly-Arg-Arg-2-Nal-Cys-Tyr-Cit-Lys-^DPro^LPro | 100%
3 | Tyr-Arg-Cit-Cys-Dab-Gly-^DPro-Arg-Arg-Trp-Cys-Tyr-Gln-Lys-^DPro^LPro | 95%
4 | Tyr-Arg-Cit-Cys-Ser-Gly-^DPro-Arg-Arg-2-Nal-Cys-Tyr-Gln-Lys-^DPro^LPro | 95%
5 | Tyr-Arg-Cit-Dab-Arg-Gly-^DPro-Arg-Arg-Trp-Glu-Tyr-Cit-Lys-^DPro^LPro | 92%
6 | Tyr-Arg-Cit-Glu-Arg-Gly-^DPro-Arg-Arg-Trp-Dab-Tyr-Cit-Lys-^DPro^LPro | 72%
7 | Tyr-Arg-Cit-Phe-Arg-Cit-Pro-Arg-Arg-2-Nal-Phe-Tyr-Cit-Lys-^DPro^LPro | 100%
8 | Tyr-Arg-Cit-Phe-Arg-Cit-Pro-Arg-Arg-2-Nal-Val-Tyr-Cit-Lys-^DPro^LPro | 100%
9 | Tyr-Arg-Cit-Phe-Arg-Cit-^DPro-Arg-Arg-2-Nal-Phe-Tyr-Cit-Lys-^DPro^LPro | 100%
10 | Tyr-Arg-Cit-Phe-Arg-Cit-^DPro-Arg-Arg-2-Nal-Val-Tyr-Cit-Lys-^DPro^LPro | 100%
11 | Tyr-Arg-Cit-Phe-Arg-Gly-Gly-Arg-Arg-2-Nal-Phe-Tyr-Cit-Lys-^DPro^LPro | 100%
12 | Tyr-Arg-Cit-Phe-Arg-Gly-^DPro-Arg-Arg-2-Nal-Phe-Tyr-Cit-Lys-^DPro^LPro | 100%
13 | Tyr-Arg-Cit-Phe-Arg-Phe-Pro-Arg-Arg-2-Nal-Phe-Tyr-Cit-Lys-^DPro^LPro | 100%
14 | Tyr-Arg-Cit-Phe-Arg-Phe-Pro-Arg-Arg-2-Nal-Val-Tyr-Cit-Lys-^DPro^LPro | 100%
15 | Tyr-Arg-Cit-Phe-Arg-Phe-^DPro-Arg-Arg-2-Nal-Phe-Tyr-Cit-Lys-^DPro^LPro | 100%
16 | Tyr-Arg-Cit-Phe-Arg-Phe-^DPro-Arg-Arg-2-Nal-Val-Tyr-Cit-Lys-^DPro^LPro | 100%
17 | Tyr-Arg-Cit-Phe-Arg-Val-Gly-Arg-Arg-2-Nal-Phe-Tyr-Cit-Lys-^DPro^LPro | 92%
18 | Tyr-Arg-Cit-Phe-Arg-Val-Pro-Arg-Arg-2-Nal-Phe-Tyr-Cit-Lys-^DPro^LPro | 100%
19 | Tyr-Arg-Cit-Phe-Arg-Val-Pro-Arg-Arg-2-Nal-Val-Tyr-Cit-Lys-^DPro^LPro | 100%
20 | Tyr-Arg-Cit-Phe-Arg-Val-^DPro-Arg-Arg-2-Nal-Phe-Tyr-Cit-Lys-^DPro^LPro | 100%
21 | Tyr-Arg-Cit-Phe-Arg-Val-^DPro-Arg-Arg-2-Nal-Val-Tyr-Cit-Lys-^DPro^LPro | 99%
22 | Tyr-Arg-Cit-Ser-Arg-Gly-^DPro-Arg-Arg-Trp-Asn-Tyr-Cit-Lys-^DPro^LPro | 67%

Row | Substance | final purity (method not given)
23 | Tyr-Arg-Cit-Tyr-Arg-Val-Gly-Arg-Arg-2-Nal-Tyr-Tyr-Cit-Lys-^DPro^LPro | 99%
24 | Tyr-Arg-Cit-Val-Arg-Cit-Pro-Arg-Arg-2-Nal-Phe-Tyr-Cit-Lys-^DPro^LPro | 100%
25 | Tyr-Arg-Cit-Val-Arg-Cit-Pro-Arg-Arg-2-Nal-Val-Tyr-Cit-Lys-^DPro^LPro | 100%
26 | Tyr-Arg-Cit-Val-Arg-Cit-^DPro-Arg-Arg-2-Nal-Val-Tyr-Cit-Lys-^DPro^LPro | 100%
27 | Tyr-Arg-Cit-Val-Arg-Gly-Gly-Arg-Arg-2-Nal-Val-Tyr-Cit-Lys-^DPro^LPro | 95%
28 | Tyr-Arg-Cit-Val-Arg-Gly-^DPro-Arg-Arg-2-Nal-Val-Tyr-Cit-Lys-^DPro^LPro | 100%
29 | Tyr-Arg-Cit-Val-Arg-Phe-Pro-Arg-Arg-2-Nal-Phe-Tyr-Cit-Lys-^DPro^LPro | 100%
30 | Tyr-Arg-Cit-Val-Arg-Phe-Pro-Arg-Arg-2-Nal-Val-Tyr-Cit-Lys-^DPro^LPro | 100%
31 | Tyr-Arg-Cit-Val-Arg-Phe-^DPro-Arg-Arg-2-Nal-Phe-Tyr-Cit-Lys-^DPro^LPro | 100%
32 | Tyr-Arg-Cit-Val-Arg-Phe-^DPro-Arg-Arg-2-Nal-Val-Tyr-Cit-Lys-^DPro^LPro | 100%
33 | Tyr-Arg-Cit-Val-Arg-Pro-Val-Arg-Arg-2-Nal-Val-Tyr-Cit-Lys-^DPro^LPro | 93%
34 | Tyr-Arg-Cit-Val-Arg-Val-Gly-Arg-Arg-2-Nal-Val-Tyr-Cit-Lys-^DPro^LPro | 100%
35 | Tyr-Arg-Cit-Val-Arg-Val-Pro-Arg-Arg-2-Nal-Phe-Tyr-Cit-Lys-^DPro^LPro | 100%
36 | Tyr-Arg-Cit-Val-Arg-Val-Pro-Arg-Arg-2-Nal-Val-Tyr-Cit-Lys-^DPro^LPro | 100%
37 | Tyr-Arg-Cit-Val-Arg-Val-^DPro-Arg-Arg-2-Nal-Phe-Tyr-Cit-Lys-^DPro^LPro | 100%
38 | Tyr-Arg-Cit-Val-Arg-Val-^DPro-Arg-Arg-2-Nal-Val-Tyr-Cit-Lys-^DPro^LPro | 100%
39 | Tyr-Arg-Cit-t-BuG-Arg-Gly-Gly-Arg-Arg-2-Nal-t-BuG-Tyr-Cit-Lys-^DPro^LPro | 93%
40 | Tyr-Arg-Cit-t-BuG-Arg-Pro-Val-Arg-Arg-2-Nal-t-BuG-Tyr-Cit-Lys-^DPro^LPro | 98%
41 | Tyr-Arg-Cit-t-BuG-Arg-Val-Gly-Arg-Arg-2-Nal-t-BuG-Tyr-Cit-Lys-^DPro^LPro | 93%
42 | Tyr-Arg-Gln-Cys-Arg-Gly-^DPro-Arg-Arg-2-Nal-Cys-Tyr-Cit-Lys-^DPro^LPro | 79%
43 | Tyr-Arg-Glu-Cys-Arg-Gly-^DPro-Arg-Arg-2-Nal-Cys-Tyr-Gln-Lys-^DPro^LPro | 95%
44 | Tyr-Arg-His-Cys-Arg-Gly-^DPro-Arg-Arg-2-Nal-Cys-Tyr-Gln-Lys-^DPro^LPro | 95%

Row | Substance | final purity (method not given)
45 | Tyr-Arg-Ile-Cys-Arg-Gly-^DPro-Arg-Arg-2-Nal-Cys-Tyr-Gln-Lys-^DPro^LPro | 95%
46 | Tyr-Arg-Ile-Cys-Arg-Gly-^DPro-Arg-Arg-Tyr-Cys-Tyr-Gln-Lys-^DPro^LPro | 92%
47 | Tyr-Arg-Leu-Cys-Arg-Gly-^DPro-Arg-Arg-2-Nal-Cys-Tyr-Gln-Lys-^DPro^LPro | 95%
48 | Tyr-Arg-Lys-Cys-Arg-Gly-^DPro-Arg-Arg-2-Nal-Cys-Tyr-Gln-Lys-^DPro^LPro | 95%
49 | Tyr-Arg-Met-Cys-Arg-Gly-^DPro-Arg-Arg-2-Nal-Cys-Tyr-Gln-Lys-^DPro^LPro | 95%
50 | Tyr-Arg-Pro-Cys-Arg-Gly-^DPro-Arg-Arg-2-Nal-Cys-Tyr-Gln-Lys-^DPro^LPro | 95%
51 | Tyr-Arg-Ser-Cys-Arg-Gly-^DPro-Arg-Arg-2-Nal-Cys-Tyr-Gln-Lys-^DPro^LPro | 95%
52 | Tyr-Arg-Ser-Cys-Arg-Gly-^DPro-Arg-Arg-Trp-Cys-Tyr-Cit-Asp-^DPro^LPro | 95%
53 | Tyr-Arg-Thr-Cys-Arg-Gly-^DPro-4-PyrAla-Arg-Trp-Cys-Tyr-Gln-Lys-^DPro^LPro | 95%
54 | Tyr-Arg-Thr-Cys-Arg-Gly-^DPro-Arg-Arg-2-Nal-Cys-Tyr-Cit-Lys-^DPro^LPro | 98%
55 | Tyr-Arg-Thr-Cys-Arg-Gly-^DPro-Arg-Arg-Tyr-Cys-Tyr-Cit-Lys-^DPro^LPro | 95%
56 | Tyr-Arg-Thr-Cys-Arg-Gly-^DPro-Arg-Arg-Tyr-Cys-Tyr-Gln-Lys-^DPro^LPro | 95%
57 | Tyr-Arg-Thr-Cys-Arg-Gly-^DPro-Dab-Arg-2-Nal-Cys-Tyr-Gln-Lys-^DPro^LPro | 95%
58 | Tyr-Arg-Thr-Cys-Arg-Gly-^DPro-Dab-Arg-Trp-Cys-Tyr-Gln-Lys-^DPro^LPro | 95%
59 | Tyr-Arg-Trp-Cys-Arg-Gly-^DPro-Arg-Arg-2-Nal-Cys-Tyr-Gln-Lys-^DPro^LPro | 95%
60 | Tyr-Arg-Tyr-Cys-Arg-Gly-^DPro-Arg-Arg-2-Nal-Cys-Tyr-Gln-Lys-^DPro^LPro | 95%
61 | Tyr-Arg-Tyr-Cys-Arg-Gly-^DPro-Arg-Arg-Tyr-Cys-Tyr-Gln-Lys-^DPro^LPro | 91%
62 | Tyr-Arg-Val-Cys-Arg-Gly-^DPro-Arg-Arg-2-Nal-Cys-Tyr-Gln-Lys-^DPro^LPro | 95%
63 | Tyr-His-Cit-Cys-Arg-Gly-^DPro-Arg-Arg-Trp-Cys-Tyr-Cit-Lys-^DPro^LPro | 95%
64 | Tyr-His-Thr-Cys-Arg-Gly-^DPro-Arg-His-Trp-Cys-Tyr-Gln-Lys-^DPro^LPro | 95%
65 | Tyr-Lys-Cit-Cys-Arg-Gly-^DPro-Arg-Arg-Trp-Cys-Tyr-Cit-Lys-^DPro^LPro | 95%
